Consider one compound from patent US11897881B1, “Substituted pyrido[3,4-b]indole-3-carboxylic acids as CK2 inhibitors” (KING FAISAL UNIVERSITY, priority 2023, dated 2024).

Common to all, as to type: cell-based
Assay [1] has as its system A375 (melanoma). Description: In vitro cytotoxic activity assay (MTT), A375. To be noted: Homo sapiens, A-375; A375 (melanoma) cells, exposed for 96 hours; read-out: IC50, 50% inhibition of cell proliferation. The method, then:
(§1) Compounds 1-15 were screened for their in vitro cytotoxic activity utilizing a 3-(4,5-dimethyl-thiazol-2-yl)-2,5-diphenyltetrazolium bromide (MTT) assay against selected cancer human cell lines consisting of PC3 (prostate), HCT116 (colon), A375 (melanoma), H1299 (lung), MIAPaCa-2 (pancreas), HL60 (leukemia), MCF7 (breast), MDA-MB-231 (breast) (T. Mosmann, J. Immunol. Meth., 1983, 65, 55-63). The cells were cultured at 37° C. in RMPI1640 medium supplemented with 10% fetal bovine serum, 50 IU/mL penicillin, and 50 μg/mL streptomycin in a 5% CO2 incubator. All cells were sub-cultured 3 times/week by trypsinisation. Viable cells were seeded and allowed to adhere for 12 h before a test drug was added in 96-well plates at an initial density of 1.0×10^5 cells/mL. Tumour cell lines were separately exposed to various concentrations of the tested compounds followed by incubation at a temperature of 37° C. during 96 h inside a medium of fresh RMPI 1640. Cells were subsequently incubated at 37° C. using MTT at 0.5 mg/mL during 4 h. After removal of supernatant, formazan crystals were dissolved in isopropanol and the optical density was measured at 570 nm. CX-4945 was used as a positive control.

In assay [2] the test system is MDA-MB-231 (breast). Description: In vitro cytotoxic activity assay (MTT), MDA-MB-231. To be noted: Homo sapiens; MDA-MB-231 (breast) cells, exposed for 96 hours; read-out: IC50, 50% inhibition of cell proliferation. As for the experimental part:
as §1

Assay [3] has as its system PC3 (prostate). Nature of the assay: In vitro cytotoxic activity assay (MTT), PC3. The settings on record: Homo sapiens, Prostate cell; PC3 (prostate) cells, exposed for 96 hours; read-out: IC50, 50% inhibition of cell proliferation. The method, then:
as §1

The subject of assay [4] is HCT116 (colon). Description: In vitro cytotoxic activity assay (MTT), HCT116. To be noted: Homo sapiens, HCT-116; HCT116 (colon) cells, exposed for 96 hours; read-out: IC50, 50% inhibition of cell proliferation. The method, then: as §1
Assay [5] deals with HL60 (leukemia). Nature of the assay: In vitro cytotoxic activity assay (MTT), HL60. To be noted: Homo sapiens, HL-60; HL60 (leukemia) cells, exposed for 96 hours; read-out: IC50, 50% inhibition of cell proliferation. As for the experimental part: as §1
Assay [6] relates to H1299 (lung). Description: In vitro cytotoxic activity assay (MTT), H1299. The settings on record: Homo sapiens, NCI-H1299; H1299 (lung) cells, exposed for 96 hours; read-out: IC50, 50% inhibition of cell proliferation. As for the experimental part: as §1
The test system of assay [7] is MIAPaCa-2 (pancreas). Description: In vitro cytotoxic activity assay (MTT), MIAPaCa-2. The settings on record: Homo sapiens, MIA PaCa-2; MIAPaCa-2 (pancreas) cells, exposed for 96 hours; read-out: IC50, 50% inhibition of cell proliferation. As for the experimental part: as §1
In assay [8] the test system is MCF7 (breast). Description: In vitro cytotoxic activity assay (MTT), MCF7. The settings on record: Homo sapiens; MCF7 (breast) cells, exposed for 96 hours; read-out: IC50, 50% inhibition of cell proliferation. The method, then: as §1

Turning to `O=C(O)c1ccc2c(c1)nc(Nc1cccc(Cl)c1)c1ccncc12` [CX-4945, reference compound], the IC50 came out at 4.1 µM in assay [1]; 6.2 µM in assay [2]; 2 µM in assay [3]; 2.3 µM in assay [4]; 3.7 µM in assay [5]; 2.3 µM in assay [6]. Further, the IC50 in assay [7] came out at 1 µM; in assay [8], 9.1 µM.
